# Counter-ions that a name gives are not always drawn. The list shows a part of the results. This data set is noisy: repeats of one test often differ as much as different tests do.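 The human kidney-derived cells carry a stably integrated construct of eight TEAD-binding elements driving luciferase, read by luminescence in a drug-repurposing library screen. A compound counts as a hit when its signal is more than five robust Z scores above the plate mean.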
# Test system: HEK293A TEAD-LUC reporter
# Experiment: TEAD-luciferase reporter activity (YAP activation), robust Z score vs plate; higher = stronger YAP/TEAD activation
# Conditions: 24 h
Compound,TEAD-luciferase reporter activity (compound concentration: 200 nM),TEAD-luciferase reporter activity (compound concentration: 2 uM),TEAD-luciferase reporter activity (compound concentration: 10 uM)
CC[C@@H](CC[C@@H](C)[C@H]1CCC2[C@@H]3CC=C4C[C@H](O)CC[C@]4(C)C3CC[C@@]21C)C(C)C (stereo partly drawn),inactive: -0.815,inactive: 0.17,inactive: 0.461
CCCCCCCCCCCCCCCCCC(=O)NCC(COP(=O)(O)OCC[N+](C)(C)C)OCC (stereo not drawn),inactive: -0.931,inactive: -1.79,inactive: -2.34
CC1CCCN1CCCOc1ccc(-n2cc(C(=O)N3CCOCC3)cn2)cc1 (stereo not drawn),inactive: -0.691,inactive: -1.14,inactive: -1.23
CCCN1CCCCC12Cc1ccccc1CN(C(=O)CCCC(=O)O)C2 (stereo not drawn),inactive: 1.23,–,inactive: 0.0202
CCCCc1ccc2[nH]c(NC(=O)OC)nc2c1,inactive: 2.81,active: 11.7,active: 16.8
CCOC(=O)c1c(Cn2cncn2)nc2cc(OC)c(OC)cc2c1-c1ccc(OC)c(OC)c1,inactive: -0.49,inactive: -1.55,inactive: -0.937
C[C@H]1[C@H](C)CC[C@]2(CO)CC[C@]3(C)C(=CC[C@@H]4[C@@]5(C)CC[C@H](O)C(C)(C)[C@@H]5CC[C@]43C)[C@H]12,inactive: 1.53,inactive: -1.92,inactive: 1.4
CC(C)N1CCN=C1CN1CCCCSc2ccc(Cl)cc21 [Dazolicine],inactive: -0.48,inactive: -2.03,inactive: 1.81
Cc1ccccc1N(C)C1CN(Cc2ccccc2)C1,active: 9.68,–,inactive: 3.91
N=C(N)NCCC(=O)O,inactive: -1.26,–,inactive: 1.29
COc1ccc(CC(C)(C)NC[C@H](O)c2cc(O)cc3c2OCC(=O)N3)cc1 [Olodaterol HCl],inactive: -0.648,inactive: -0.189,inactive: 2.48
CCOC(=O)C1CCN(C(=O)CCS(=O)(=O)c2ccc3ccccc3c2)CC1,inactive: -2.61,inactive: -1.74,inactive: 2.63
CO[C@H](CN(CC(C)C)S(=O)(=O)c1ccc2occc2c1)[C@H](Cc1ccccc1)NC(=O)OC(C)(C)C,inactive: -1.08,inactive: -0.304,inactive: 2.97
COc1cc2c(c3c1c(=O)c1ccccc1n3C)C=CC(C)(C)O2 [acronycine],inactive: -0.00668,inactive: 1.79,inactive: 0.202
CC(C)(C)[C@H](NC(=O)[C@@H](NC(=O)c1cnccn1)C1CCCCC1)C(=O)O,inactive: -0.275,inactive: -0.747,inactive: 0.566
Cc1ccc([N+](=O)[O-])c(NC(C(N)=O)c2ccccc2Cl)c1 (stereo not drawn),–,inactive: 2.76,–

# Some of the entries above in a different format.
Compound	TEAD-luciferase reporter activity (compound concentration: 200 nM)	TEAD-luciferase reporter activity (compound concentration: 2 uM)	TEAD-luciferase reporter activity (compound concentration: 10 uM)
CCOC(=O)C1CCN(C(=O)CCS(=O)(=O)c2ccc3ccccc3c2)CC1	inactive: -2.61	inactive: -1.74	inactive: 2.63
CO[C@H](CN(CC(C)C)S(=O)(=O)c1ccc2occc2c1)[C@H](Cc1ccccc1)NC(=O)OC(C)(C)C	inactive: -1.08	inactive: -0.304	inactive: 2.97
